PubChem BioAssay AID1259424 – University of Nebraska Medical Center, 2018
Here is a random part of about 14,000 reagents tested. 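Higher correlation or smaller distance means closer resemblance to KSR1 loss; control wells, including KSR1 knockdowns, recur on many plates.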 The numbers tell different reagents against one gene apart. The record does not give: the time to read-out.

- Test: 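Find knockdowns that reproduce the expression shifts seen after KSR1 loss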 (primary screen)
- System: human HCT116 colon cancer cells
- Reagents: siRNA pool against human genes, 50 nM
- Detection: 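Log2 levels of six mRNAs (branched-DNA multiplex), adjusted by two reference genes and the non-targeting median, then scored against the average KSR1 knockdown pattern as Pearson r and euclidean distance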
- Direction: mean correlation with KSR1 profile and KSR1 correlation: higher = expression change more like KSR1 knockdown; mean distance from KSR1 profile: higher = expression change less like KSR1 knockdown

| gene | pool no. | mean correlation with KSR1 profile | mean distance from KSR1 profile | KSR1 correlation, replicate 1 | KSR1 correlation, replicate 2 | KSR1 correlation, replicate 3 |
| --- | --- | --- | --- | --- | --- | --- |
| KIAA0232 (GeneID 9778) | 1 | -0.486 | 1.51 | -0.61 | -0.488 | -0.162 |
| PDHA2 (GeneID 5161) | 1 | 0.526 | 1.97 | 0.465 | 0.561 | 0.488 |
| GABARAPL1 (GeneID 23710) | 1 | -0.0818 | 2.21 | 0.0783 | -0.376 | -0.173 |
| SSTR4 (GeneID 6754) | 1 | 0.731 | 1.1 | 0.756 | 0.835 | 0.724 |
| PHLDA1 (GeneID 22822) | 1 | -0.532 | 2.27 | -0.458 | -0.529 | -0.387 |
| RNF40 (GeneID 9810) | 1 | 0.0603 | 2.39 | -0.303 | 0.0409 | 0.439 |
| STBD1 (GeneID 8987) | 1 | -0.126 | 1.62 | -0.00499 | 0.125 | -0.291 |
| TAS2R46 (GeneID 259292) | 1 | 0.73 | 1.24 | 0.742 | 0.749 | 0.726 |
| GEMIN7 (GeneID 79760) | 1 | 0.596 | 1.28 | 0.683 | 0.622 | 0.364 |
| DCN (GeneID 1634) | 1 | -0.106 | 1.36 | 0.0894 | -0.0197 | -0.516 |
| EIF2B4 (GeneID 8890) | 1 | 0.265 | 3.29 | 0.432 | 0.466 | 0.258 |
| NME4 (GeneID 4833) | 1 | -0.647 | 3.01 | 0.509 | -0.834 | -0.55 |
| H19 (GeneID 283120) | 1 | 0.383 | 1.26 | 0.356 | 0.307 | 0.324 |
| ZMYM2 (GeneID 7750) | 1 | -0.0299 | 1.76 | -0.00338 | 0.03 | -0.199 |
| PTPN6 (GeneID 5777) | 1 | 0.481 | 1.7 | 0.565 | 0.747 | -0.00114 |
| PCDHA2 (GeneID 56146) | 1 | 0.323 | 1.93 | 0.161 | 0.29 | 0.281 |
| TOMM7 (GeneID 54543) | 1 | -0.614 | 7.16 | -0.427 | -0.068 | -0.224 |
| DNAJC6 (GeneID 9829) | 1 | -0.339 | 3.96 | -0.238 | -0.643 | -0.185 |
| USP24 (GeneID 23358) | 1 | -0.49 | 1.81 | -0.283 | -0.657 | -0.606 |
| KHDC1 (GeneID 80759) | 1 | 0.137 | 1.41 | -0.295 | -0.197 | -0.00133 |
| SRR (GeneID 63826) | 1 | -0.27 | 2.46 | -0.306 | -0.0333 | -0.195 |
| PFKFB1 (GeneID 5207) | 1 | 0.0708 | 2.61 | 0.0552 | 0.371 | 0.134 |
| CEP350 (GeneID 9857) | 1 | -0.486 | 2.08 | -0.265 | -0.725 | -0.313 |
| GPR157 (GeneID 80045) | 1 | 0.592 | 1.36 | 0.396 | 0.645 | 0.626 |
| CHRNA9 (GeneID 55584) | 1 | 0.00305 | 1.45 | 0.13 | -0.415 | 0.0392 |
| TXLNGY (GeneID 246126) | 1 | 0.901 | 1.01 | 0.921 | 0.791 | 0.803 |
| ZDHHC17 (GeneID 23390) | 1 | -0.387 | 2.35 | -0.334 | -0.439 | -0.263 |
| LRRFIP1 (GeneID 9208) | 1 | 0.0179 | 1.58 | 0.00832 | 0.551 | -0.0847 |
| LPAR4 (GeneID 2846) | 1 | 0.896 | 0.742 | 0.901 | 0.906 | 0.883 |
| OR1E1 (GeneID 8387) | 1 | 0.508 | 2.15 | 0.647 | 0.601 | 0.311 |
| HFE (GeneID 3077) | 1 | 0.765 | 1.05 | 0.79 | 0.73 | 0.626 |
| DKFZP586K1520 (retired record) (GeneID 26106) | 1 | -0.491 | 3.93 | -0.253 | -0.562 | -0.625 |
| RARS1 (GeneID 5917) | 1 | -0.22 | 2.64 | -0.13 | -0.394 | 0.000803 |
| UBE2V2 (GeneID 7336) | 1 | -0.478 | 2.93 | -0.373 | -0.543 | -0.596 |
| PDE1C (GeneID 5137) | 1 | 0.909 | 0.515 | 0.646 | 0.737 | 0.514 |
| COPS3 (GeneID 8533) | 1 | -0.7 | 2.78 | -0.636 | -0.673 | -0.721 |
| PTGFR (GeneID 5737) | 1 | 0.972 | 1.64 | 0.965 | 0.987 | 0.92 |
| SCGN (GeneID 10590) | 1 | -0.0644 | 2.22 | 0.166 | -0.0354 | -0.351 |
| GFOD1 (GeneID 54438) | 1 | -0.299 | 1.95 | -0.0959 | -0.165 | -0.26 |
| GFOD1 (GeneID 54438) | 2 | 0.576 | 1.49 | 0.535 | 0.513 | 0.553 |
| SNAI2 (GeneID 6591) | 1 | 0.614 | 1.33 | 0.448 | 0.732 | 0.465 |
| FBXO42 (GeneID 54455) | 1 | -0.011 | 1.51 | -0.0605 | 0.133 | 0.113 |
| COX10 (GeneID 1352) | 1 | 0.7 | 2.66 | 0.25 | 0.251 | 0.676 |
| AHSA1 (GeneID 10598) | 1 | 0.00203 | 1.75 | -0.142 | -0.139 | 0.112 |
| RARS2 (GeneID 57038) | 1 | 0.328 | 3.26 | 0.388 | 0.0917 | 0.32 |
| NTHL1 (GeneID 4913) | 1 | -0.587 | 2.4 | -0.667 | -0.402 | -0.511 |
| MC5R (GeneID 4161) | 1 | 0.346 | 3.03 | 0.476 | 0.351 | 0.448 |
| OXSR1 (GeneID 9943) | 1 | 0.235 | 1.79 | 0.663 | 0.271 | -0.0284 |
| ITFG2 (GeneID 55846) | 1 | -0.103 | 1.96 | -0.319 | -0.138 | -0.132 |
| ALOX12B (GeneID 242) | 1 | 0.127 | 2.05 | 0.102 | 0.207 | 0.028 |
| PLVAP (GeneID 83483) | 1 | 0.628 | 2.73 | 0.404 | 0.68 | 0.816 |
| RNF7 (GeneID 9616) | 1 | 0.511 | 0.911 | -0.135 | 0.348 | 0.345 |
| POLR1C (GeneID 9533) | 1 | -0.365 | 3.38 | -0.263 | -0.406 | -0.317 |
| IFNA10 (GeneID 3446) | 1 | 0.553 | 0.886 | 0.42 | 0.421 | 0.508 |
| CRYBB3 (GeneID 1417) | 1 | -0.357 | 2.31 | -0.347 | -0.198 | -0.549 |
| MRPS16 (GeneID 51021) | 1 | -0.432 | 7.25 | -0.38 | 0.437 | 0.0345 |
| NT5E (GeneID 4907) | 1 | -0.264 | 2.87 | -0.314 | -0.262 | -0.349 |
| GPR162 (GeneID 27239) | 1 | 0.86 | 0.877 | 0.852 | 0.83 | 0.821 |
| OSCAR (GeneID 126014) | 1 | -0.136 | 2.72 | -0.182 | 0.000487 | -0.321 |
| H4C6 (GeneID 8361) | 1 | -0.183 | 1.71 | -0.244 | -0.208 | -0.0842 |
| NADK (GeneID 65220) | 1 | 0.0891 | 2.09 | 0.191 | -0.101 | -0.222 |
| GAB3 (GeneID 139716) | 1 | 0.171 | 1.7 | -0.0597 | 0.148 | 0.193 |
| CGGBP1 (GeneID 8545) | 1 | -0.0903 | 4.48 | 0.0828 | -0.244 | -0.0908 |

A portion taken from the entries so far:
| gene | pool no. | mean correlation with KSR1 profile | mean distance from KSR1 profile | KSR1 correlation, replicate 1 | KSR1 correlation, replicate 2 | KSR1 correlation, replicate 3 |
| --- | --- | --- | --- | --- | --- | --- |
| COPS3 (GeneID 8533) | 1 | -0.7 | 2.78 | -0.636 | -0.673 | -0.721 |
| PTGFR (GeneID 5737) | 1 | 0.972 | 1.64 | 0.965 | 0.987 | 0.92 |
| SCGN (GeneID 10590) | 1 | -0.0644 | 2.22 | 0.166 | -0.0354 | -0.351 |
| GFOD1 (GeneID 54438) | 1 | -0.299 | 1.95 | -0.0959 | -0.165 | -0.26 |
